Measurements reported in PubChem BioAssay AID652243 (Drosophila RNAi Screening Center, 2013)
The screen tested about 24,000 reagents; shown is a random part of those that have a named target and a result. In the full data, 246 (1%) got an active call. 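Plates not normalised; calls are printed but the firefly/Renilla ratio behind them is not deposited; fold cut for lowering reported inconsistently.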 The raw values are shown without normalisation. Entries without a mark were called inactive. Names joined by + are all predicted targets of the reagent. Reagent sequences are not shown. Not stated in the record: the amount of reagent.

Aim: 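Fly genes required for human androgen receptor driven transcription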 (primary screen)
Cell system: Drosophila S2R+ cells
Reagent: long dsRNA against Drosophila genes
Time to read-out: 72 h (48 h, then 24 h hormone)
Treatment: synthetic androgen R1881 at 10 nM for 24 h
Detection: 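Per-well raw luminescence of the androgen-driven firefly reporter and of the Renilla control, two replicates each, without normalisation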
Scale: firefly reporter light: higher = more light from androgen-responsive reporter; Renilla control light: higher = more constitutive control signal (cell number, transfection)
Rule for the call: 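Hit when the log firefly-to-Renilla ratio dropped or increased by a fixed fold versus the mean of GFP or LacZ controls across duplicate plates; lowering cut given as 1.5 and as 3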
Calls: active = hit: reporter lowered or raised; inactive = no hit

Silencing of Fbxl4 [DRSC19805] resulted in: firefly reporter light, replicate 1 = 96172; firefly reporter light, replicate 2 = 74774; Renilla control light, replicate 1 = 6.60e5; Renilla control light, replicate 2 = 6.26e5. For CG14538 (retired record) [DRSC02396], the values are firefly reporter light, replicate 1 = 2.11e5; firefly reporter light, replicate 2 = 1.86e5; Renilla control light, replicate 1 = 2.05e6; Renilla control light, replicate 2 = 2.37e6. Against CG14538 (retired record) [DRSC29424], the values are firefly reporter light, replicate 1 = 5.11e5; firefly reporter light, replicate 2 = 5.13e5; Renilla control light, replicate 1 = 1.40e6; Renilla control light, replicate 2 = 1.40e6. After knock-down of CG3280 (retired record) [DRSC10356] the results were firefly reporter light, replicate 1 = 2.94e5; firefly reporter light, replicate 2 = 2.02e5; Renilla control light, replicate 1 = 2.26e6; Renilla control light, replicate 2 = 1.93e6. Against CheA56a [DRSC37844], the entry reads firefly reporter light, replicate 1 = 4.52e5; firefly reporter light, replicate 2 = 5.78e5; Renilla control light, replicate 1 = 9.90e5; Renilla control light, replicate 2 = 1.50e6. For CG4704 [DRSC15628], the values are firefly reporter light, replicate 1 = 1.71e5; firefly reporter light, replicate 2 = 2.16e5; Renilla control light, replicate 1 = 2.04e6; Renilla control light, replicate 2 = 2.44e6.

After knock-down of ppk31 [DRSC13811], the screen gave firefly reporter light, replicate 1 = 27299; firefly reporter light, replicate 2 = 79190; Renilla control light, replicate 1 = 1.02e5; Renilla control light, replicate 2 = 1.34e5. Against ppk31 [DRSC25391], the values are firefly reporter light, replicate 1 = 5.93e5; firefly reporter light, replicate 2 = 9.62e5; Renilla control light, replicate 1 = 6.99e5; Renilla control light, replicate 2 = 1.04e6. CG43084 [DRSC09998] scored firefly reporter light, replicate 1 = 2.78e5; firefly reporter light, replicate 2 = 2.45e5; Renilla control light, replicate 1 = 2.73e6; Renilla control light, replicate 2 = 2.21e6. Knock-down of Vamp7 [DRSC06599] resulted in: firefly reporter light, replicate 1 = 3.41e5; firefly reporter light, replicate 2 = 2.64e5; Renilla control light, replicate 1 = 2.31e6; Renilla control light, replicate 2 = 1.97e6. With knock-down of mei-218 + mei-217 [DRSC29292] the results were firefly reporter light, replicate 1 = 4.40e5; firefly reporter light, replicate 2 = 8.20e5; Renilla control light, replicate 1 = 1.52e6; Renilla control light, replicate 2 = 1.62e6. With knock-down of Hesr [DRSC19965] the results were firefly reporter light, replicate 1 = 8.37e5; firefly reporter light, replicate 2 = 6.87e5; Renilla control light, replicate 1 = 5.16e6; Renilla control light, replicate 2 = 5.24e6.
